Test results taken from PubChem BioAssay AID330 (DTP/NCI, 2004).
The list does not hold the whole screen: it is rich in T/C values a quarter to a half above the control, in often repeated tests (any T/C) and in doses without a T/C. Other doses and runs of a compound stand elsewhere. T/C: endpoint of the treated group in % of that of the vehicle group. Some doses have a count of surviving animals in place of a T/C: the source holds a T/C of zero for them, seemingly a mark for toxic or unscored doses. Some survivor counts are full or nearly so, which does not show that the dose was tolerated: survival well below the control is almost never listed, so the zero probably covers shortened survival too. Survivors were counted at the toxicity check, usually on the fifth day, unless a day is given; later deaths do not show. Schedule codes are those of the source, taken here to give the interval after Q, in days (D) or hours (H), and the number of doses after X. Signs of the kind (2×) stand for listed records that agree. Some doses were run more than once; the values are given in rising order. For survival time, the PubChem record calls one and a half times the control and up active, and a quarter to a half above the control has no call in these data; cut-offs in other NCI protocols can differ. Some T/C values are followed by the survivors on the day toxicity was checked, most often the fifth; without a count, all were alive then.

Tested on: P388 leukemia ip, CD2F1 mice, survival T/C
Experiment: NCI In Vivo Anticancer Drug Screen. Data for tumor model P388 Leukemia (intraperitoneal) in CD2F1 (CDF1) mice
Settings: T/C endpoint: median survival time, higher T/C = longer survival
[1] = dose: 100.0 mg/kg/injection, schedule: Q01DX005 (ip), vehicle: saline with Tween-80
[2] = dose: 200.0 mg/kg/injection, schedule: Q01DX005 (ip), vehicle: saline with Tween-80

Question: How did the survivor count (dose: 25.0 mg/kg/injection, schedule: Q01DX005 (ip), vehicle: saline with Tween-80) turn out when `Cn1cccc1/C=N/N1CC(=O)N(c2cccc(C(F)(F)F)c2)CC1=O` was run?
Answer: Its survivor count is 0 of 6.

Question: What about the survivor count (dose: 50.0 mg/kg/injection, schedule: Q01DX005 (ip), vehicle: saline with Tween-80) of the same compound?
Answer: Its survivor count is 0 of 6.

Question: And the survivor count [1]?
Answer: Its survivor count is 0 of 6.

Question: And the survivor count [2]?
Answer: Its survivor count is 0 of 6.

Question: For `CN1CCC2CC1c1ccn(C)c1C2=O` (stereo not given), which survivor count (dose: 60.0 mg/kg/injection, schedule: Q01DX005 (ip), vehicle: saline) is on record?
Answer: The survivor count was 0 of 6.

Question: What about the survivor count (dose: 120.0 mg/kg/injection, schedule: Q01DX005 (ip), vehicle: saline) of the same compound?
Answer: Its survivor count is 0 of 6.

Question: What about the survivor count (dose: 240.0 mg/kg/injection, schedule: Q01DX005 (ip), vehicle: saline) of the same compound?
Answer: The survivor count was 0 of 6.

Question: `CC(=O)C(C=O)C(C)=O.CC(=O)CC(C)=O.CC(=O)CC(C)=O.[Ru]` was tested. Which survivor count (dose: 120.0 mg/kg/injection, schedule: Q01DX005 (ip), vehicle: saline with Tween-80) did it give?
Answer: The survivor count was 3 of 6.

Question: And the survivor count (dose: 240.0 mg/kg/injection, schedule: Q01DX005 (ip), vehicle: saline with Tween-80)?
Answer: The survivor count was 1 of 6.

Question: How did the survivor count (dose: 100.0 mg/kg/injection, schedule: Q04DX002 (ip), vehicle: Klucel (hydroxypropylcellulose) (HPC)) turn out when `CCN(CC)C1=Nc2ccccc2N(c2ccccc2)C(N2CCCCC2)=C1` was run?
Answer: The survivor count was 0 of 6.

Question: And the survivor count (dose: 200.0 mg/kg/injection, schedule: Q04DX002 (ip), vehicle: Klucel (hydroxypropylcellulose) (HPC))?
Answer: Its survivor count is 1 of 6.

Question: What about the survivor count (dose: 400.0 mg/kg/injection, schedule: Q04DX002 (ip), vehicle: Klucel (hydroxypropylcellulose) (HPC)) of the same compound?
Answer: Its survivor count is 0 of 6.

Question: Which results are given for `COc1cccc2c1C(=O)c1c(O)c3c(c(O)c1C2=O)C[C@@](O)(/C(C)=N/NC(=O)c1ccc(Cl)cc1)C[C@@H]3OC1CC(N)C(O)C(C)O1` (stereo not given in full)?
Answer: T/C (dose: 0.25 mg/kg/injection, schedule: Q01DX009 (ip), vehicle: water): 145 % of control; T/C (dose: 0.5 mg/kg/injection, schedule: Q01DX009 (ip), vehicle: water): 139 % of control; T/C (dose: 1.0 mg/kg/injection, schedule: Q01DX009 (ip), vehicle: water): 145 % of control; T/C (dose: 4.0 mg/kg/injection, schedule: Q01DX009 (ip), vehicle: water): 140 % of control; survivor count (dose: 8.0 mg/kg/injection, schedule: Q01DX009 (ip), vehicle: water): 6 of 6; survivor count (dose: 16.0 mg/kg/injection, schedule: Q01DX009 (ip), vehicle: water): 6 of 6 (2×); survivor count (dose: 40.0 mg/kg/injection, schedule: Q01DX001 (ip), vehicle: water): 6 of 6; survivor count (dose: 80.0 mg/kg/injection, schedule: Q01DX001 (ip), vehicle: water): 2 of 6; survivor count (dose: 160.0 mg/kg/injection, schedule: Q01DX001 (ip), vehicle: water): 0 of 6

Question: `O=S(=O)(O)c1ccc2c(N=Nc3ccccc3[As](=O)(O)O)c(O)c(S(=O)(=O)O)cc2c1` was tested. Which T/C (dose: 132.0 mg/kg/injection, schedule: Q01DX009 (ip), vehicle: saline with Tween-80) did it give?
Answer: Its T/C is 136 % of control.

Question: And the T/C (dose: 200.0 mg/kg/injection, schedule: Q01DX009 (ip), vehicle: saline with Tween-80)?
Answer: The T/C was 131 % of control (2×).

Question: And the survivor count (dose: 300.0 mg/kg/injection, schedule: Q01DX009 (ip), vehicle: saline with Tween-80)?
Answer: The survivor count was 4 of 6.

Question: Which survivor count [2] does the source give for `O=C1NC2(CCCCC2)C(=O)N1CO` here?
Answer: The survivor count was 1 of 6.

Question: How did the T/C (dose: 20.0 mg/kg/injection, schedule: Q01DX009 (ip), vehicle: saline with Tween-80) turn out when `O=C/C(Cl)=C(/Cl)C(=O)O` was run?
Answer: The T/C was 138 % of control [5 of 6 alive].

Question: Which results are given for `CCC1(O)CC(OC2CC(N(C)C)C(OC3CC4OC5CC(=O)C(C)OC5OC4C(C)O3)C(C)O2)c2c(cc3c(c2O)C(=O)c2c(O)ccc(O)c2C3=O)C1C(=O)OC` (stereo not given)?
Answer: T/C (dose: 0.5 mg/kg/injection, schedule: Q04DX003 (ip), vehicle: saline with Tween-80): 125 % of control; T/C (dose: 1.0 mg/kg/injection, schedule: Q04DX003 (ip), vehicle: other): 127 % of control; T/C (dose: 1.0 mg/kg/injection, schedule: Q04DX003 (ip), vehicle: saline with Tween-80): 125, 127, 131, 133 % of control; T/C (dose: 2.0 mg/kg/injection, schedule: Q04DX003 (ip), vehicle: other): 128 % of control; T/C (dose: 2.0 mg/kg/injection, schedule: Q04DX003 (ip), vehicle: saline with Tween-80): 125, 130, 134 % of control; T/C (dose: 2.0 mg/kg/injection, schedule: Q04DX003 (ip), vehicle: water): 127 % of control; T/C (dose: 3.0 mg/kg/injection, schedule: Q04DX003 (ip), vehicle: water): 133 % of control; T/C (dose: 4.0 mg/kg/injection, schedule: Q04DX003 (ip), vehicle: other): 147 % of control; survivor count (dose: 4.0 mg/kg/injection, schedule: Q04DX003 (ip), vehicle: saline with Tween-80): 5 of 6 and 6 of 6; T/C (dose: 4.0 mg/kg/injection, schedule: Q04DX003 (ip), vehicle: water): 147 % of control; T/C (dose: 5.4 mg/kg/injection, schedule: Q04DX003 (ip), vehicle: water): 125 % of control; survivor count (dose: 8.0 mg/kg/injection, schedule: Q04DX003 (ip), vehicle: other): 6 of 6; survivor count (dose: 8.0 mg/kg/injection, schedule: Q04DX003 (ip), vehicle: saline with Tween-80): 3 of 6 and 5 of 6; survivor count (dose: 8.0 mg/kg/injection, schedule: Q04DX003 (ip), vehicle: water): 5 of 6; T/C (dose: 9.0 mg/kg/injection, schedule: Q04DX003 (ip), vehicle: water): 147 % of control; survivor count (dose: 15.0 mg/kg/injection, schedule: Q04DX003 (ip), vehicle: water): 8 of 8

Question: For `CC(=O)c1c(-c2ccc(Cl)cc2)c(-c2ccc(Cl)cc2)nn(CCN)c1=O`, which survivor count [1] is on record?
Answer: The survivor count was 1 of 6.

Question: And the survivor count [2]?
Answer: The survivor count was 0 of 6.

Question: `O=C(O)c1c2ccccc2nc2[nH]c(=O)[nH]c(=O)c12` was tested. Which survivor count (dose: 200.0 mg/kg/injection, schedule: Q01DX005 (ip), vehicle: Klucel (hydroxypropylcellulose) (HPC)) did it give?
Answer: Its survivor count is 3 of 6.

Question: Which results are given for `CCSC(=Nc1nc2ccc([N+](=O)[O-])cc2s1)SCC`?
Answer: survivor count (dose: 50.0 mg/kg/injection, schedule: Q01DX009 (ip), vehicle: Klucel (hydroxypropylcellulose) (HPC)): 6 of 6; survivor count (dose: 100.0 mg/kg/injection, schedule: Q01DX009 (ip), vehicle: Klucel (hydroxypropylcellulose) (HPC)): 4 of 6; survivor count (dose: 200.0 mg/kg/injection, schedule: Q01DX009 (ip), vehicle: Klucel (hydroxypropylcellulose) (HPC)): 0 of 6

Question: What does the source list for `CC(NNC(=S)N1CCCCCC1)c1cc2ccccc2cn1` (stereo not given)?
Answer: T/C [1]: 125 % of control; T/C [2]: 141 % of control

Question: For `Nc1nc(=S)c2ncn(C3OC(COC(=O)c4ccc(Cl)cc4)C(OC(=O)c4ccc(Cl)cc4)C3OC(=O)c3ccc(Cl)cc3)c2[nH]1` (stereo not given), which T/C (dose: 50.0 mg/kg/injection, schedule: Q01DX009 (ip), vehicle: saline with Tween-80) is on record?
Answer: The T/C was 136 % of control.

Question: What about the T/C (dose: 100.0 mg/kg/injection, schedule: Q01DX009 (ip), vehicle: saline with Tween-80) of the same compound?
Answer: Its T/C is 145 % of control.

Question: And the T/C (dose: 100.0 mg/kg/injection, schedule: Q04DX003 (ip), vehicle: saline with Tween-80)?
Answer: Its T/C is 136 % of control.

Question: And the T/C (dose: 300.0 mg/kg/injection, schedule: Q04DX003 (ip), vehicle: saline with Tween-80)?
Answer: The T/C was 133 % of control.

Question: Which results are given for `CC(=O)N(C)N=NCCCl`?
Answer: T/C (dose: 52.5 mg/kg/injection, schedule: Q01DX005 (ip), vehicle: saline with Tween-80): 147 % of control; survivor count (dose: 105.0 mg/kg/injection, schedule: Q01DX005 (ip), vehicle: saline with Tween-80): 5 of 6; survivor count (dose: 210.0 mg/kg/injection, schedule: Q01DX005 (ip), vehicle: saline with Tween-80): 6 of 6

Question: With `c1nnc(NCNc2nncs2)s1` as the compound, how does the survivor count (dose: 400.0 mg/kg/injection, schedule: Q04DX003 (ip), vehicle: saline) read?
Answer: The survivor count was 4 of 6.

Question: What does the source list for `COc1cccc2c1C(=O)c1c(O)c3c(c(O)c1C2=O)C[C@@](O)(C(C)O)C[C@@H]3OC1CC(N)C(O)C(C)O1` (stereo not given in full)?
Answer: T/C (dose: 0.65 mg/kg/injection, schedule: Q01DX009 (ip), vehicle: saline): 145 % of control; T/C (dose: 5.0 mg/kg/injection, schedule: Q01DX001 (ip), vehicle: saline): 145 % of control; T/C (dose: 8.0 mg/kg/injection, schedule: Q01DX009 (ip), vehicle: saline): 125 % of control; survivor count (dose: 13.0 mg/kg/injection, schedule: Q01DX009 (ip), vehicle: saline): 6 of 6; T/C (dose: 13.3 mg/kg/injection, schedule: Q01DX001 (ip), vehicle: saline): 145 % of control; T/C (dose: 22.2 mg/kg/injection, schedule: Q04DX003 (ip), vehicle: saline): 145 % of control

Question: Which survivor count (dose: 0.12 mg/kg/injection, schedule: Q01DX009 (ip), vehicle: saline with Tween-80) does the source give for `CCCCCCCCCCCCCCCC(=O)OC12CC(C)C3(O)C(C=C(CO)CC4(O)C(=O)C(C)=CC43)C1C2(C)CO` (stereo not given) here?
Answer: Its survivor count is 5 of 6.
